Measured values from PubChem BioAssay AID504444 (National Center for Advancing Translational Sciences (NCATS), 2011).
Screen size: about 360,000 compounds; about 7,500 (2.1%) were called active. The shares of active, inactive and inconclusive entries below differ from those in the screen. The call rests on the fitted dose curve; in most records, active means well fitted inhibition curve with a large enough effect; inconclusive means small, poorly fitted or top-dose-only effect, or effect the other way; inactive means flat fitted curve, though single readings scatter. A potency beside an inconclusive call is a rough fit, not a confirmed value.
Potency means the concentration at half of the fitted maximal effect.

Test: Nrf2 qHTS screen for inhibitors; further: nearly all actives have a fitted effect of over 60% in size
Conditions: A549 ARE-Fluc reporter, luciferase luminescence, 18-24 h; series mostly up to 46 µM
From the text: NIH Molecular Libraries Probe Production Network [MLPCN]
NIH Chemical Genomics Center [NCGC]
Assay Provider: Shyam Biswal, Johns Hopkins University
Nrf2 is a transcription factor that maintains cellular redox homoestasis and protects cells from xenobiotics. Nrf2 binds to the antioxidant response element (ARE) to induce gene expression of a broad spectrum of genes that encode for antioxidants. […] Finding a small molecule that act as an inhibitor of Nrf2 function would represent a novel therapeutic target that could lead to improvement in survival of patients undergoing chemo- and/or radio- therapy.
This is the Nrf2 activity measured in the luminescent read.
1. Shibata, T., et al., Genetic Alteration of Keap1 Confers Constitutive Nrf2 Activation and Resistance to Chemotherapy in Gallbladder Cancer. Gastroenterology, 2008.
2. Sjoblom, T., et al., The consensus coding sequences of human breast and colorectal cancers. Science, 2006. 314(5797): p. 268-74.
NCGC Assay Protocol Summary:
A concentration-response assay was performed with A549 ARE_Fluc cells which are suspended in 5% FBS OPTI-MEM. Five uL were dispensed into 1536-well white TC-treated plate using the Kalypsys dispenser to achieve a density of 5000 cells/well in all columns except column 1. The plate is incubated at 37deg C at 5% CO2 for 2 hours before 23 nL of compounds are added with the Kalypsys pin tool equipped with a 1,536-pin array containing 10-nL slotted pins (FP1S10, 0.457-mm diameter, 50.8 mm long; V&P Scientific). The control compounds Budesonide and Staurosporine are both added at a concentration of 2mM and Budesonide is also added as a 1:10 titration, starting at 200uM, to achieve dose-response. After an 18-24 hour incubation at 37deg C at 5% CO2, 5ul of medium is added to column 1. Afterwards 1ul of 5x of CellTiter-Fluor (Promega) is added to every well. The plate is then incubated at 37deg C at 5% CO2 for 30 minutes before they are read on the ViewLux (Perkin Elmer) for a fluorescent read Ex=405(10)/Em=525(10) for a 3 second exposure, 2x binning, and high gain. Then 3 uL of 3x BugLite is dispensed into all wells and the plate is incubated at ambient room temperature for 15 minutes. Afterwards another ViewLux read is performed using the clear filter to get a luminescent read with the settings of 40 second exposure, 2x binning, and high gain. Cytotoxicity is assessed through the first fluorescent read and then biochemical activity against Nrf2 is measured in the luminescent read.
For `N#CC1=C(N)Oc2c(c(=O)sc3ccccc23)C1c1ccncc1` (centres undefined), the Potency was inconclusive: 32.6 µM [falling, single point]. With `CCCCn1c(NC(=O)c2ccc(Br)o2)c(C(=O)OCC)c2nc3ccccc3nc21` the Potency was inconclusive: 4.11 µM [activator, single point]. For `CCC(=NCCCO)c1c(O)n(-c2ccc(OC)cc2)c(=O)[nH]c1=O`, the Potency was inconclusive: 3.26 µM [activator, partial curve, poor fit]. With `CC(=Nc1ccc2c(c1)CCC2)c1c(O)n(-c2ccccc2)c(=O)[nH]c1=O` the Potency was inconclusive: 2.31 µM [falling, partial curve, poor fit]. For `N#CCSc1nnc(-c2ccc3c(c2)OCO3)o1`, the Potency was inconclusive: 29.1 µM [falling, single point]. For `N#Cc1ccc(Cn2cc(C(=O)c3ccco3)c3ccccc32)cc1`, the Potency was inconclusive: 29.1 µM [falling, single point]. For `Cc1sc(NC(=O)Cn2c(=O)oc3ccccc32)nc1-c1ccc(Cl)cc1`, the Potency was inconclusive: 8.2 µM [falling, partial curve]. For `CCCCn1c(=O)c(C(=O)Nc2ccccc2)c(O)c2ccccc21`, the Potency was “inactive”. With `O=C(c1ccoc1)N1CCCC(N2CCN(c3cccc(C(F)(F)F)c3)CC2)C1` (centres undefined) the Potency was inconclusive: 29.1 µM [falling, single point]. In the case of `S=C(Nc1ccc(Br)cc1Cl)N1CCC2(CC1)OCCO2`, the Potency is reported as inconclusive: 2.91 µM [activator, full curve, poor fit]. In the case of `COC(=O)C1=C(c2ccc(Cl)c(C(F)(F)F)c2)C[C@@H]2CC[C@H]1N2C(=O)NC1CC1`, the Potency is reported as inconclusive: 5.8 µM [falling, partial curve, poor fit]. In the case of `CCOC(=O)CNC(=O)CNC(=O)C(Cc1ccc(N(CCCl)CCCl)cc1)NC(C)=O` (centres undefined), the Potency is reported as “inactive”. With `Cc1cccn2c(=O)c3c(nc12)N1CCC(Cc2ccccc2)CC1C1(C3)C(=O)N(C)C(=O)N(C)C1=O` (centres undefined) the Potency was inconclusive: 20.6 µM [falling, partial curve, poor fit]. With `O=c1c2ccccc2nc(/C=C/c2ccccc2F)n1-c1ccccc1O` the Potency was “inactive”. For `[O-]/[N+](=C/c1cccnc1)c1ccc(Br)cc1`, the Potency was inconclusive: 11.6 µM [activator, partial curve]. In the case of `Cc1ccc(C(=O)n2c(N)nc3ccccc32)cc1`, the Potency is reported as inconclusive: 0.0184 µM [activator, full curve, poor fit]. For `Nc1ccc2ccccc2c1`, the Potency was inconclusive: 29.1 µM [activator, single point]. With `O=C(Nc1ccc2nc3n(c(=O)c2c1)CCCCC3)c1cccc(C(F)(F)F)c1` the Potency was active: 11.6 µM. In the case of `COC(=O)C1=C(c2cc3ccccc3s2)C[C@@H]2CC[C@H]1N2C(=O)NCc1cccc2ccccc12`, the Potency is reported as inconclusive: 29.1 µM [falling, single point]. With `Cc1cccc(N2C(=O)NC(=O)/C(=C\c3cccn3-c3ccc(Cl)cc3)C2=O)c1` the Potency was inconclusive: 20.6 µM [activator, partial curve]. In the case of `C=C1C(=O)O[C@H]2C[C@@H](C)[C@@H]3C=CC(=O)[C@@]3(C)C[C@H]12`, the Potency is reported as active: 20.6 µM. For `COCCOC(=O)c1c(N)n(Cc2ccc(OC)cc2)c2nc3ccccc3nc12`, the Potency was “inactive”. In the case of `COc1c(C)cc(Br)cc1C(=O)Nc1ccc(-c2nc3ncccc3o2)cc1`, the Potency is reported as inconclusive: 2.31 µM [falling, full curve]. In the case of `COC(=O)C1=C(c2ccc(F)cc2F)C[C@@H]2CC[C@H]1N2C(=O)N1CCC(O)(c2ccc(Cl)cc2)CC1`, the Potency is reported as inconclusive: 25.9 µM [falling, partial curve, poor fit]. In the case of `Cc1oc(-c2ccccc2Cl)nc1CN1C(=O)CN=C(c2ccccc2)c2ccccc21`, the Potency is reported as inconclusive: 25.9 µM [falling, partial curve, poor fit]. In the case of `CC(C)N1C(=O)NC(=O)C2(Cc3cc([N+](=O)[O-])ccc3N(C)C2c2ccccc2)C1=O` (centres undefined), the Potency is reported as inconclusive: 29.1 µM [falling, single point]. In the case of `COC(=O)C1=C(c2ccc(Cl)c(C(F)(F)F)c2)C[C@@H]2CC[C@H]1N2C(=O)NCCOc1ccccc1`, the Potency is reported as inconclusive: 16.4 µM [falling, single point]. With `COC(=O)C1=C(c2cccc(OCc3ccccc3)c2)C[C@@H]2CC[C@H]1N2C(=O)NCc1cc(C)oc1C(F)(F)F` the Potency was inconclusive: 2.59 µM [falling, full curve]. For `CC[C@@H](O)C[C@H]1CCC[C@@]2(C[C@@H]3OC(=O)/C=C/[C@@](C)(O)[C@@H](O)[C@H](C)[C@@H](O)[C@H](OC4CCC(N(C)C)C(C)O4)[C@@H](O)[C@](C)(O)CCCCC/C=C/[C@@H]4CC(C)(C)O[C@@]4(O)C[C@H](O2)[C@H]3C)O1` (some centres undefined), the Potency was active: 0.0058 µM. With `COc1ccc(CNC(=O)CSCc2cnn(-c3ccccc3)c2-n2cccc2)cc1OC` the Potency was active: 9.2 µM. With `O=C1NC(=O)N(Cc2ccccc2)C(=O)C1Cc1ccccc1` (centres undefined) the Potency was “inactive”. In the case of `CC(C)CCNc1nnnc2c1sc1nc(N3CCOCC3)c3c(c12)CC(C)(C)SC3`, the Potency is reported as inconclusive: 0.116 µM [falling, full curve]. With `O=C(COc1ccc(Br)cc1)Nc1ccc(Cl)cc1C(=O)c1ccccc1` the Potency was “inactive”. For `Cc1cc(-c2n[nH]c(=S)n2CC(C)C)cs1`, the Potency was inconclusive: 6.51 µM [falling, partial curve]. For `CCC1(O)CCC2C3CCC4=CC(=O)CCC4C3CCC21CC` (centres undefined), the Potency was inconclusive: 23.1 µM [falling, partial curve, poor fit]. In the case of `Cc1c2cnn(CC(=O)N3CCC4(CC3)OCCO4)c(=O)c2c(C)n1Cc1ccc(F)cc1`, the Potency is reported as inconclusive: 16.4 µM [falling, single point]. For `CN1C(=O)/C(=C/c2ccc(N3CCCCCC3)o2)C(=O)NC1=S`, the Potency was inconclusive: 0.092 µM [activator, full curve, poor fit]. For `CCOC(=O)COc1ccc(/C=C2\C(=O)NC(=S)N(c3ccc(OC)cc3)C2=O)cc1OC`, the Potency was “inactive”. With `Cc1ccc(C(=O)N[C@@H](C)CN2C3=NC[C@H](Cc4ccccc4)N3C[C@H]2Cc2ccc(O)cc2)cc1Br` the Potency was inconclusive: 25.9 µM [falling, partial curve, poor fit].
